Out of some 360,000 compounds screened, about 780 (0.22%) were called active. Inconclusive means that the source gave no clear call. Such entries were picked first, then a sample of the others. No stated cut-off is given here; in the data, active means inhibition above about 35% (passing the limit was not always enough); inconclusive means no clear call, values can overlap the other calls.
Tested on: Botulinum neurotoxin type F light chain protease (Clostridium botulinum)
Experiment: BoNT/F light chain protease inhibitors, primary screen, biochemical, flow cytometry, MLPCN library (AID 588497); further: plate controls were buffer without enzyme for full effect and enzyme alone for no effect
Settings: Multiplex microsphere protease cleavage assay, at 10 µM, hits give high values

Row | Compound | inhibition
1 | Cc1ccc(NC(=O)C2(N(CC(C)C)C(=O)Cn3nnnc3N)CCCCC2)cc1 | inconclusive: -39.3%
2 | O=C(CCC1CCCC1)NNC(=O)c1cccc(Cl)c1 | inactive: -12.4%
3 | COC(=O)C(C)Oc1ccc2cc(-c3ccccc3)c(=O)oc2c1 (stereo not drawn) | inactive: -5.8%
4 | Cc1c(Cl)cnc(NC(=O)COC(=O)C2CC3CCCC(C2)C3=O)c1Cl (stereo not drawn) | inconclusive: -3.9%
5 | Cc1ccc(S(=O)(=O)Nc2cccc3c2O[C@H](CN(C)Cc2ccccc2)[C@@H](C)CN([C@H](C)CO)C3=O)cc1 | inactive: -3.6%
6 | O=C(NCCOC(=O)c1ccccc1)c1ccc([N+](=O)[O-])cc1 | inconclusive: 5.4%
7 | O=C(Cn1cnc2ccccc21)N/N=C/c1ccccn1 | inconclusive: -23%
8 | O=C(CSc1ccc(C(F)(F)F)cn1)Nc1ccccc1 | inconclusive: 34.2%
9 | CN(CCOc1ccc(Cl)cc1)C(=O)c1cccc(S(=O)(=O)N2CCN(c3ccc(F)cc3)CC2)c1 | inactive: -10%
10 | CCOC(=O)c1sc(-c2ccc(OC)cc2)cc1N | inactive: -0.5%
11 | COc1cccc(C=C2SC(=S)NC2=O)c1 | inactive: -3.7%
12 | NC(=S)N/N=C/c1ccc2cccc(OCc3ccccc3)c2n1 | inconclusive: -18.7%
13 | COC(=O)Cc1ccc(NC(=S)N2CCN(CCO)CC2)cc1 | inconclusive: -39.9%
14 | CCc1nc2ccc(C(=O)NC3CCN(Cc4ccccc4)CC3)cn2c1N(C)Cc1ccc(N(C)C)cc1 | inactive: -3%
15 | C=CCC(NCc1ccccc1)c1ccc(C)o1 (stereo not drawn) | inconclusive: 9.9%
16 | CC(=O)c1cn(-c2ccc([N+](=O)[O-])cc2)c(=O)n(C)c1=O | inconclusive: 21.5%
17 | CC1CCCN(CC(=O)Nc2ccc(S(=O)(=O)N3CCCCC3)cc2)C1 (stereo not drawn) | inactive: 16.3%
18 | COc1cc(NC(=O)C2CCCO2)c(OC)cc1Cl (stereo not drawn) | inconclusive: 0.2%
19 | O=[N+]([O-])c1ccccc1S(=O)(=O)c1ccccc1 | inconclusive: -6.6%
20 | COc1cc(OC)cc(-c2nc3ccccc3s2)c1 | inactive: -6.1%

Sorted by count of non-hydrogen atoms (rising): some entries from above.
Row | Compound | inhibition
12 | NC(=S)N/N=C/c1ccc2cccc(OCc3ccccc3)c2n1 | inconclusive: -18.7%
1 | Cc1ccc(NC(=O)C2(N(CC(C)C)C(=O)Cn3nnnc3N)CCCCC2)cc1 | inconclusive: -39.3%
9 | CN(CCOc1ccc(Cl)cc1)C(=O)c1cccc(S(=O)(=O)N2CCN(c3ccc(F)cc3)CC2)c1 | inactive: -10%

Next structures follow:

Row | Compound | inhibition
21 | Cc1cccc(C(=O)N2CCCC(c3nc(-c4ccc(F)cc4)no3)C2)c1 (stereo not drawn) | inconclusive: -1.7%
22 | O=[N+]([O-])c1cccc(C(=NCc2ccccc2)NO)c1 | inconclusive: -27.6%
23 | O=C1NC(=O)N(Cc2ccco2)C(=O)/C1=C\c1ccc(-c2ccc(F)cc2)o1 | inconclusive: -22.8%
24 | Cc1ccc(OC(=O)c2cccnc2)cc1 | inactive: -0.5%
25 | CCc1nc2ccc(C(=O)NCCCn3ccnc3)cn2c1N(C)Cc1nccs1 | inactive: 7%
26 | Cc1cccc(NC(=O)CSCC(=O)Nc2ccc(S(=O)(=O)N3CCOCC3)cc2)c1 | inconclusive: -3.4%
27 | COc1ccc(C(=O)N2CCCc3ccccc32)cc1Br | inconclusive: 29.9%
28 | CC(NC(=O)NNC(N)=S)(C(F)(F)F)C(F)(F)F | inconclusive: 2.8%
29 | O=C(COC(=O)CNS(=O)(=O)c1ccc(Cl)cc1)NC1CCCCC1 | inconclusive: -1.1%
30 | COc1cccc(-c2nc(CSCC(=O)N3CCc4ccccc43)c(C)o2)c1 | inconclusive: -5.5%
31 | CCOC(=O)C1=C(O)/C(=C/c2cc(C)n(-c3ccccc3)c2C)N=C1C | inconclusive: 168%
32 | Cn1nnnc1NC(=O)c1ccccc1Cl | inconclusive: 1%
33 | O=C(c1cc2ccccc2o1)N(C1CC1)C1(C(=O)Nc2ccccc2)CCCC1 | inactive: -2.6%
34 | Cc1ccc2nc(-c3ccc(O)c(O)c3)cn2c1 | inconclusive: -12.1%
35 | COc1ccc(O)c(/C=C2/SC(=S)N(Cc3ccccc3)C2=O)c1 | inconclusive: -15.2%
36 | O=C(C1CCN(S(=O)(=O)c2ccccc2F)CC1)N1CCN(Cc2ccc3c(c2)OCO3)CC1 | inactive: 0.7%
37 | COc1cccc(CC(=O)N(C)C2CCCN(Cc3ccccc3F)C2)c1 (stereo not drawn) | inactive: 8.1%
38 | COc1ccc(CN2CCNC(=O)C2CC(=O)N(C)CCC2CCOCC2)c(OC)c1 (stereo not drawn) | inactive: 4.9%
39 | CC(C)OCCCn1c(SCC(=O)Nc2ccccc2C(F)(F)F)nc2nccnc2c1=O | inactive: -0.3%
40 | CC(C)CN(C(=O)COC(=O)CCN1C(=O)c2ccccc2C1=O)C1CCS(=O)(=O)C1 (stereo not drawn) | inactive: -9.7%

Row | Compound | inhibition
41 | COc1cc(/C=C/c2ccc3cccc(O)c3n2)cc(Br)c1OC | inconclusive: -13.5%
42 | Cc1cc(Nc2ccccc2Cl)n2nnnc2n1 | inconclusive: -41.5%
43 | Cc1ccc(C(=O)O/N=C(/c2nonc2N)N(C)C)cc1 | inconclusive: -9.9%
44 | O=C(c1cc(COc2ccc(F)cc2Cl)on1)N1CCc2sccc2C1 | inactive: -0.9%
45 | N#Cc1nc(-c2cccc3ccccc23)oc1NCC1CCCO1 (stereo not drawn) | inconclusive: -70.6%
46 | CCCCNC(=O)Nc1ccc(C2SCCS2)cc1 | inconclusive: 23.6%
47 | COc1ccccc1NC(=O)c1coc(=O)c(Br)c1 | inconclusive: 40%
48 | CCC[C@H]1CN(c2ccc(OC)cc2)C(=O)[C@@H]1CC(=O)NC | inactive: -0.3%
49 | COC(C(=O)NNC(=O)Cc1ccc(Cl)cc1)c1ccccc1 (stereo not drawn) | inconclusive: -68%
50 | Cn1c(=O)c(-[n+]2ccccc2)c([O-])c2ccccc21 | inconclusive: -30.3%
51 | Cc1[nH]oc(=O)c1N=Nc1ccc2[nH]c(=O)[nH]c2c1 | inconclusive: 58.3%
52 | Cc1ccc(C(C(=O)NC2CCCC2)N(Cc2cccs2)C(=O)CNC(=O)c2cccs2)o1 (stereo not drawn) | inconclusive: 14.7%
53 | CN(NC1OC(=O)c2ccccc21)c1ccc(Cl)cc1[N+](=O)[O-] (stereo not drawn) | inconclusive: 4.3%
54 | O=C(O)CSc1nnc(Cc2cccc3ccccc23)n1-c1cc(C(F)(F)F)cc(C(F)(F)F)c1 | inconclusive: 19.5%
55 | C/C(=N/Nc1ncc(Br)cn1)c1ccc([N+](=O)[O-])cc1 | inconclusive: -43.3%
56 | O=C(Cc1ccc(Br)cc1)NCCN1CCOCC1 | inconclusive: 7.7%
57 | Cc1nc(-c2cccc(S(=O)(=O)N3CCC(C)CC3)c2)cs1 | inactive: 1.1%
58 | COC(=O)c1ccc(Nc2ccc3nonc3c2[N+](=O)[O-])cc1 | inconclusive: 36.2%

Reference: PubChem BioAssay AID588497 (NMMLSC, 2011)
